Source: PubChem BioAssay AID1053208 (Peter MacCallum Cancer Centre, 2014)
Test: 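Genes whose silencing cuts survival of bone tumour cells only with doxorubicin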 (primary screen). Cells: mouse osteosarcoma cells, early-passage culture from an engineered mouse model of fibroblastic bone tumour. Reagents: siRNA pool against mouse genes, 40 nM. Duration: about 120 h (48 h before drug, then 72 h with drug). Challenge: doxorubicin 100 nM for 72 h, roughly 30-40% inhibitory dose. Measurement: 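Viability read as ATP luminescence after 72 h of 100 nM doxorubicin or none, duplicate wells averaged, scaled to non-targeting siRNA, then expressed as robust z-scores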. Scale: viability z-score with doxorubicin and doxorubicin viability vs non-targeting: higher = more viable cells under doxorubicin; viability z-score without drug: higher = more viable cells with knock-down alone; z-score of drug to no-drug ratio: higher = less drug sensitisation by knock-down. Hit rule: 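Called active if knock-down leaves viability unchanged without drug (z within -2 to 2) but lowers it with doxorubicin (z at or under -2)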.
Here is a random part of about 17,000 reagents tested. 788 of all reagents (4.7%) count as active. 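Calls rest on z-score classes alone; an extra cut-off of viability at most 70% of control was not applied to them.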 Reagent sequences are not shown.

gene	combined z-score class	viability z-score with doxorubicin	viability z-score without drug	z-score of drug to no-drug ratio	doxorubicin viability vs non-targeting	activity call
Smim12 (small integral membrane protein 12)	no change with or without drug	0.9	0.51	0.67	1.02	inactive
Icos (inducible T cell co-stimulator)	no change with or without drug	-0.22	0.17	-0.22	0.92	inactive
Plpp1 (phospholipid phosphatase 1)	no change with or without drug	1.57	1.18	0.9	1.08	inactive
Or4p19 (olfactory receptor family 4 subfamily P member 19)	low cell count with doxorubicin only	-2.7	-1.52	-1.91	0.7	active
Prl8a9 (prolactin family8, subfamily a, member 9)	no change with or without drug	-0.9	0.17	-0.9	0.86	inactive
Adamts7 (ADAM metallopeptidase with thrombospondin type 1 motif 7)	no change with or without drug	0.22	1.18	-0.45	0.96	inactive
Otc (ornithine transcarbamylase)	no change with or without drug	-0.22	0.51	-0.45	0.92	inactive
Spata20 (spermatogenesis associated 20)	no change with or without drug	1.24	1.52	0.34	1.05	inactive
Arpc5 (actin related protein 2/3 complex, subunit 5)	no change with or without drug	-0.45	-1.18	0.45	0.9	inactive
Tex19.2 (testis expressed gene 19.2)	no change with or without drug	-1.57	-0.17	-1.46	0.8	inactive
Rgs14 (regulator of G-protein signaling 14)	no change with or without drug	0.67	-1.18	1.8	1	inactive
Sp3os (trans-acting transcription factor 3, opposite strand)	no change with or without drug	0.9	1.85	-0.22	1.02	inactive
Adamts1 (ADAM metallopeptidase with thrombospondin type 1 motif 1)	no change with or without drug	0.22	0.17	0.22	0.96	inactive
Slc22a7	no change with or without drug	-0.67	-0.51	-0.22	0.88	inactive
Mastl (microtubule associated serine/threonine kinase-like)	no change with or without drug	-0.11	0	0	0.93	inactive
Exog (exo/endonuclease G)	no change with or without drug	0	0.84	-0.45	0.94	inactive
Taldo1 (transaldolase 1)	no change with or without drug	-0.9	-0.17	-0.79	0.86	inactive
Clec3b (C-type lectin domain family 3, member b)	no change with or without drug	-1.12	1.18	-1.8	0.84	inactive
Clps (colipase, pancreatic)	no change with or without drug	-0.67	-0.51	-0.22	0.88	inactive
Pcm1 (pericentriolar material 1)	no change with or without drug	0.11	0.51	-0.11	0.95	inactive
Oga (O-GlcNAcase)	no change with or without drug	-0.56	-0.17	-0.34	0.89	inactive
Ppy (pancreatic polypeptide)	no change with or without drug	1.8	0.34	1.69	1.1	inactive
Casz1 (castor zinc finger 1)	no change with or without drug	0.22	-0.17	0.45	0.96	inactive
Cnot6 (CCR4-NOT transcription complex, subunit 6)	no change with or without drug	0	-0.67	0.56	0.94	inactive
Rapsn (receptor-associated protein of the synapse)	no change with or without drug	0.67	0.17	0.67	1	inactive
Kcnab2	no change with or without drug	0.56	-0.17	0.79	0.99	inactive
Map7 (microtubule-associated protein 7)	no change with or without drug	0.67	-0.17	0.9	1	inactive
Trir (telomerase RNA component interacting RNase)	no change with or without drug	-0.45	-0.51	0	0.9	inactive
Adar (adenosine deaminase, RNA-specific)	no change with or without drug	-0.22	1.85	-1.24	0.92	inactive
Or5h18 (olfactory receptor family 5 subfamily H member 18)	no change with or without drug	-1.57	0.51	-1.8	0.8	inactive
Mark2 (MAP/microtubule affinity regulating kinase 2)	no change with or without drug	1.57	-0.17	1.91	1.08	inactive
Trim31 (tripartite motif-containing 31)	high cell count with doxorubicin only	2.14	1.52	1.24	1.13	inactive
Dync1li1 (dynein cytoplasmic 1 light intermediate chain 1)	no change with or without drug	-0.67	0.17	-0.67	0.88	inactive
Pcdhb16 (protocadherin beta 16)	low cell count with doxorubicin only	-2.02	-0.51	-1.69	0.76	active
